# ± gives the standard deviation of the averaged measurements. Only a part is listed here, and it is no random draw.
# Sequences of proteins named here, by UniProt entry; tags and fusion partners are left off. A change or cut given only in a name is not applied to a line headed by its entry.
# UniProt P39880: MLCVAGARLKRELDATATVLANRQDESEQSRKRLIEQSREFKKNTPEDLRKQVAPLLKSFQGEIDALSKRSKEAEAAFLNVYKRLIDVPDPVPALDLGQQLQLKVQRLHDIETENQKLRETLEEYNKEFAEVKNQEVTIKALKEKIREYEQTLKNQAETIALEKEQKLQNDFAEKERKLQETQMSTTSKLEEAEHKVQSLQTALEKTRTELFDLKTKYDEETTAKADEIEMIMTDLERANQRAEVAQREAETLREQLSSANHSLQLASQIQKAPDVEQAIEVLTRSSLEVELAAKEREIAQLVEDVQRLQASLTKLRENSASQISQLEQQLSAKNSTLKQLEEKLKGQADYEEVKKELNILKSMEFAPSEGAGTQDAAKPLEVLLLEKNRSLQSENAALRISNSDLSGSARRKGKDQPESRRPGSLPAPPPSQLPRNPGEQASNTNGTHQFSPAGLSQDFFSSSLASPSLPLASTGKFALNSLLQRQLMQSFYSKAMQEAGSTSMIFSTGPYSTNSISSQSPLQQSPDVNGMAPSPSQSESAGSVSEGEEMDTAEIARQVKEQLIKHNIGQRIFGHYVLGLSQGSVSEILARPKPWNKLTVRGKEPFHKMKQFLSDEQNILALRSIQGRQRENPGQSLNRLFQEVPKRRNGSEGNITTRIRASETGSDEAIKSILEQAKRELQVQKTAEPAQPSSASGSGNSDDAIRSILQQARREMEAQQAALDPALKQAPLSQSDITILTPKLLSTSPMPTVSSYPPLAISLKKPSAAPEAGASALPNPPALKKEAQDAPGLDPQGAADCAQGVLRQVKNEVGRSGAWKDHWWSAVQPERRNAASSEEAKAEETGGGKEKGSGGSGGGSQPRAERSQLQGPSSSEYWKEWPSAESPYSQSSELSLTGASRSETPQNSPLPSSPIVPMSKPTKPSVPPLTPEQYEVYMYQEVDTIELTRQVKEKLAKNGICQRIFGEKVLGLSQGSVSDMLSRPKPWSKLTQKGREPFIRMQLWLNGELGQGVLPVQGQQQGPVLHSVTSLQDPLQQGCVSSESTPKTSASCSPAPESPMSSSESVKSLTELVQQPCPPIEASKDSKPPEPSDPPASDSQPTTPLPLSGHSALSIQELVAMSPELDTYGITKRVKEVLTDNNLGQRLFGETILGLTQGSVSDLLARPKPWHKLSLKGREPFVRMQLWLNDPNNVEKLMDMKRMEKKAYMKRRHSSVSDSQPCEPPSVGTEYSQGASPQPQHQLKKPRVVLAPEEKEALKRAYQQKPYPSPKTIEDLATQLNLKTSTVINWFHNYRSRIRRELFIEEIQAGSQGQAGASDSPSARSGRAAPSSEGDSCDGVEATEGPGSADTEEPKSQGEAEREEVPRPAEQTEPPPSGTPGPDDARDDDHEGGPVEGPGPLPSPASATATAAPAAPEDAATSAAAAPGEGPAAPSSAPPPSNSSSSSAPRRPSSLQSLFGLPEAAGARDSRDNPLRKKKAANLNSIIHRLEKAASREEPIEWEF
# UniProt Q13948: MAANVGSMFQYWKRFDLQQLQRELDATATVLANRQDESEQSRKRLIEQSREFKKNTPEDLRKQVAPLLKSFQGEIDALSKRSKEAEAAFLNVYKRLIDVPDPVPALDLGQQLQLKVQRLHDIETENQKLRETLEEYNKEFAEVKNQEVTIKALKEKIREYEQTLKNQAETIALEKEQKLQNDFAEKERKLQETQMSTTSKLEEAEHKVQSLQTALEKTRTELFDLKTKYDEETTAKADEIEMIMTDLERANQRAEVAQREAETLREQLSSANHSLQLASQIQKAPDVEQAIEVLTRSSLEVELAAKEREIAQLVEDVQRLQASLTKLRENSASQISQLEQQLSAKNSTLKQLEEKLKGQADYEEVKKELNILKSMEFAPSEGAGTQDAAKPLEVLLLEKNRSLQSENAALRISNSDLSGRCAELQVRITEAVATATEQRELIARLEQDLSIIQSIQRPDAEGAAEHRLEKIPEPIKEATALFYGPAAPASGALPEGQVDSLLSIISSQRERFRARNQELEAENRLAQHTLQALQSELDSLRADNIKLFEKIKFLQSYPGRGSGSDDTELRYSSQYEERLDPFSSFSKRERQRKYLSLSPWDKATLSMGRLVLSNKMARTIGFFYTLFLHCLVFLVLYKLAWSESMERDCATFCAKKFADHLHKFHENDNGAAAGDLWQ
# UniProt P30679: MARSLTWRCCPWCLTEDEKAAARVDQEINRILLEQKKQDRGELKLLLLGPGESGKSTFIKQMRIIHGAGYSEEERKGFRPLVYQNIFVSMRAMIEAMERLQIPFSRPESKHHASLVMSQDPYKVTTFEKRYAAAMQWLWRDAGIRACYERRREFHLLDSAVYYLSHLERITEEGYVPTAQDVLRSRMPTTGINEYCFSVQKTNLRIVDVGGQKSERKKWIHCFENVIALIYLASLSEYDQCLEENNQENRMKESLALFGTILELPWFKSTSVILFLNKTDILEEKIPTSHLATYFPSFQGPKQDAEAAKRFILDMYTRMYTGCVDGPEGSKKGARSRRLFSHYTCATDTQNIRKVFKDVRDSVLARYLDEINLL
# UniProt P27824: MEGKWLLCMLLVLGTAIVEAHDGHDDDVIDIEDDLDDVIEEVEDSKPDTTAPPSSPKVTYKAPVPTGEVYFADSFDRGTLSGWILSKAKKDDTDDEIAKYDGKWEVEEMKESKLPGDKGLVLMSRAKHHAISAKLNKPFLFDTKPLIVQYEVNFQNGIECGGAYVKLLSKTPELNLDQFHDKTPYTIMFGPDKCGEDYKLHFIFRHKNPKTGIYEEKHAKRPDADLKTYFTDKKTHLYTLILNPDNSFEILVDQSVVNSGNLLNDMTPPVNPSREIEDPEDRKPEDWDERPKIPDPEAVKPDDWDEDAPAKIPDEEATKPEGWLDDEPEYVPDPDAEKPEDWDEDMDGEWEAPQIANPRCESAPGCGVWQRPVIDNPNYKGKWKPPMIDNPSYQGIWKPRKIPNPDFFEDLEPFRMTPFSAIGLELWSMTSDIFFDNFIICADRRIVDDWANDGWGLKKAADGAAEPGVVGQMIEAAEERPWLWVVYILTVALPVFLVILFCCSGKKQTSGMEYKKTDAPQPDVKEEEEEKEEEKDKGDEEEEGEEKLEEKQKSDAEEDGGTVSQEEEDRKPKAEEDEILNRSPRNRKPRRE
# UniProt P32321: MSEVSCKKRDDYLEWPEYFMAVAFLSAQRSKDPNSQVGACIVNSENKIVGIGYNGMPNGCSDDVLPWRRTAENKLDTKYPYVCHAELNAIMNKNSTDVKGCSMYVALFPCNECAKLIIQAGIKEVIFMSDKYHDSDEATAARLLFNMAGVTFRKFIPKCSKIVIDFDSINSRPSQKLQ
# UniProt P21580: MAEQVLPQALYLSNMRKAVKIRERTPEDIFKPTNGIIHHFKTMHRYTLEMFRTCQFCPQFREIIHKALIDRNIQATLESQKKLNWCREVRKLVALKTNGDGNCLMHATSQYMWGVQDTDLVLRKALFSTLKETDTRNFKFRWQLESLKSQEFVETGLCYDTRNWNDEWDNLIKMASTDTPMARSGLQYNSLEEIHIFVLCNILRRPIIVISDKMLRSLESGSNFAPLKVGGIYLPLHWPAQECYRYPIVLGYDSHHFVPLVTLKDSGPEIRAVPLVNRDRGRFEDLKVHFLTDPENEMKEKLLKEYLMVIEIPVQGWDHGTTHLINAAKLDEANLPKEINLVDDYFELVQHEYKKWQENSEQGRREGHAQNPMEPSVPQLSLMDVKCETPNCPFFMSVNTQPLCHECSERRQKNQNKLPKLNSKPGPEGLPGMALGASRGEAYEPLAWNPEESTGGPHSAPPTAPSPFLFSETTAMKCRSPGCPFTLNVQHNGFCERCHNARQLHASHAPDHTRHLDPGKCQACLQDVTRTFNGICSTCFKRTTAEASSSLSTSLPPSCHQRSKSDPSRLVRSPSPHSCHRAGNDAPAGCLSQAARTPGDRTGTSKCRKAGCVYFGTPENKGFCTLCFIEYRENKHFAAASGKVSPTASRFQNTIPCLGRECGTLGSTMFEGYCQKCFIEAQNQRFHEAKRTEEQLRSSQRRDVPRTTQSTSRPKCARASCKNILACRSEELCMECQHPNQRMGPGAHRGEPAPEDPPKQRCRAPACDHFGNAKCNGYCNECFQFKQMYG
# UniProt P21953: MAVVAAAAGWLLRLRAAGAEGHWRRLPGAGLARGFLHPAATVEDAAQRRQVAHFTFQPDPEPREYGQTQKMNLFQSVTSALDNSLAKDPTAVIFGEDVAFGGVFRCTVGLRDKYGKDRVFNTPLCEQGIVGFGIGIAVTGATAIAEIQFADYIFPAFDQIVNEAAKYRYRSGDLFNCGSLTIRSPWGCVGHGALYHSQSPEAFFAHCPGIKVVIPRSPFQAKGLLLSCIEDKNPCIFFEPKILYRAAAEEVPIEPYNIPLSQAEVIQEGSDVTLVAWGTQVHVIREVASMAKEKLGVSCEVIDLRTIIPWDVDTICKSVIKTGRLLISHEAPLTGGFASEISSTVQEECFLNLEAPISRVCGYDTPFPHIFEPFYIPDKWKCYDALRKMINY
# UniProt P30038: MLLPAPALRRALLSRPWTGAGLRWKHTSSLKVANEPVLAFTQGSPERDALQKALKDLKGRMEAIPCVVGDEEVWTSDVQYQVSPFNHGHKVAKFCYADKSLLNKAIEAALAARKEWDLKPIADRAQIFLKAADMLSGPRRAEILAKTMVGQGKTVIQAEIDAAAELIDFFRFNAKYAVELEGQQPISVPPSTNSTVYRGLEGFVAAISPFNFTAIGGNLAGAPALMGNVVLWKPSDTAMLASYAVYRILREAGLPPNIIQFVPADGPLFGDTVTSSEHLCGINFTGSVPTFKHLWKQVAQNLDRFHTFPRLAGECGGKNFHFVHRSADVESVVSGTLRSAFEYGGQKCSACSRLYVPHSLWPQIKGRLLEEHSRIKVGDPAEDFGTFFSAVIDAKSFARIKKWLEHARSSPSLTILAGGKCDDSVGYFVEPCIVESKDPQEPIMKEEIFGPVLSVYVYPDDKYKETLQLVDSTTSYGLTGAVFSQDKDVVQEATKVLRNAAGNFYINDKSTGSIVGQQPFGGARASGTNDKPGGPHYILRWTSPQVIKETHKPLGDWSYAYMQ
# UniProt P21291: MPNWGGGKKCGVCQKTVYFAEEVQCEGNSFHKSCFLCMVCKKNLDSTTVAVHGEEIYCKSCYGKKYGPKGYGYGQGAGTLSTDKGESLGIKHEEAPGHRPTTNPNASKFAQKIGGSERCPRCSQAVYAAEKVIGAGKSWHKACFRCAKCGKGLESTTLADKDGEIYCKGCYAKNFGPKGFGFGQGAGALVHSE
# UniProt P30084: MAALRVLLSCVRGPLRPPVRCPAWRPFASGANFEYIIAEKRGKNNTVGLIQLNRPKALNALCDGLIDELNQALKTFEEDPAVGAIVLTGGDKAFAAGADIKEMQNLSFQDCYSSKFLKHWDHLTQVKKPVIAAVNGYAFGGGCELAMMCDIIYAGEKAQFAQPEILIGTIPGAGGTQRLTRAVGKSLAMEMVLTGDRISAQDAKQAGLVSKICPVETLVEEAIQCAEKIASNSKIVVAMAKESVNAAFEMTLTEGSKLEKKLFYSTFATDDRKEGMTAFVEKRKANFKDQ
# UniProt P27987: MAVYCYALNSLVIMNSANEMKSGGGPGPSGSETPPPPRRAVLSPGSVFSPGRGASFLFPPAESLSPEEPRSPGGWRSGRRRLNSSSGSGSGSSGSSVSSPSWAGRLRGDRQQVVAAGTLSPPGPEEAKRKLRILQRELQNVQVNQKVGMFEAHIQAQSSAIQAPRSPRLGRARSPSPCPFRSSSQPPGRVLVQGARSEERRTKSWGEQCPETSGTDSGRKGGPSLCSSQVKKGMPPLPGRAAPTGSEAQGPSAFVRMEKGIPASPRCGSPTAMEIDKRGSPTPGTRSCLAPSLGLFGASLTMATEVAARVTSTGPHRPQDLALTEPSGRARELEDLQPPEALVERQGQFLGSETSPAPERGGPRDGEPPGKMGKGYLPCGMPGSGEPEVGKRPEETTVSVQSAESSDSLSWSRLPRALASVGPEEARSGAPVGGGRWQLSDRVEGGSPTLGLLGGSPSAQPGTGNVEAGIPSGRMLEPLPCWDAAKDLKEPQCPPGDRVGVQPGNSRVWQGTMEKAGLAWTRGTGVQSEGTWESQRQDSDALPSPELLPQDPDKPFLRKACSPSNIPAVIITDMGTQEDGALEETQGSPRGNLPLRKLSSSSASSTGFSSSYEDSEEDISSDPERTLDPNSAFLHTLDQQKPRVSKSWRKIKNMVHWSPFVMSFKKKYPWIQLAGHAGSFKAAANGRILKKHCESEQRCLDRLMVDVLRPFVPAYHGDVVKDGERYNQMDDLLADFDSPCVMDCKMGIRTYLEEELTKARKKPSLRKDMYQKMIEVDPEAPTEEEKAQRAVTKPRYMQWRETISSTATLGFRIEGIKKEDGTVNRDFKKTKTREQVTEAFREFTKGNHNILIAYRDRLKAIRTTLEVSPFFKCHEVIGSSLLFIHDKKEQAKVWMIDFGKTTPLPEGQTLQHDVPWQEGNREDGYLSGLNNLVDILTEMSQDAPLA
# Compound: Nc1ncnc2c1ncn2[C@@H]1O[C@H](COP(=O)(O)OP(=O)(O)NP(=O)(O)O)[C@@H](O)[C@H]1O [adenylyl imidodiphosphate]
# Experiment: NP40-soluble protein abundance relative to vehicle (solubility fold change) (ratio); higher = more soluble protein in presence of AMP-PNP
# Outline: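 Jurkat crude lysate prepared with a Dounce homogeniser was treated at eight concentrations spanning 0.1 to 10 mM, 10 min at room temperature then 3 min at 37 °C. Solubilisation with 0.8% NP40 and benzonase and ultracentrifugation preceded TMT labelling of the supernatant for LC-MS/MS. Fold change against the detergent-processed vehicle was determined per replicate from vsn-normalised intensities, across three independent experiments.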
Target,NP40-soluble protein abundance (concentration: 1mM),NP40-soluble protein abundance (concentration: 2mM),NP40-soluble protein abundance (concentration: 4mM),NP40-soluble protein abundance (concentration: 6mM),NP40-soluble protein abundance (concentration: 8mM),NP40-soluble protein abundance (concentration: 10mM)
P39880-3|Q13948 and related entries (UniProt Q13948+P39880),1.044 ± 0.0039,1.1 ± 0.077,1.03 ± 0.019,1.02 ± 0.035,0.98 ± 0.018,0.9987 ± 0.0092
UniProt P23469 and related entries,0.975 ± 0.031,0.942 ± 0.042,0.939 ± 0.029,0.941 ± 0.01,0.966 ± 0.024,0.907 ± 0.014
GNA15 (UniProt P30679),0.942 ± 0.051,0.943 ± 0.029,0.947 ± 0.022,0.981 ± 0.043,0.956 ± 0.06,0.965 ± 0.021
UniProt P27824 and related entries,1.01 ± 0.026,0.991 ± 0.011,0.985 ± 0.019,0.995 ± 0.025,1.009 ± 0.01,0.969 ± 0.039
UniProt P32321 and related entries,1.01 ± 0.017,0.987 ± 0.04,0.98 ± 0.043,1.01 ± 0.039,1.02 ± 0.041,1.01 ± 0.041
TNFAIP3 (UniProt P21580),1.02 ± 0.0085,0.9908 ± 0.0076,1.01 ± 0.016,0.995 ± 0.049,0.974 ± 0.028,0.973 ± 0.028
BCKDHB (UniProt P21953),0.962 ± 0.032,0.904 ± 0.12,0.993 ± 0.056,0.952 ± 0.055,0.998 ± 0.018,0.95 ± 0.046
ALDH4A1 (UniProt P30038),0.99 ± 0.028,1.02 ± 0.016,0.977 ± 0.033,0.975 ± 0.023,0.938 ± 0.013,0.954 ± 0.02
ITGA2 (UniProt P17301),0.9944 ± 0.0014,1.02 ± 0.084,0.988 ± 0.024,1.019 ± 0.0071,1.01 ± 0.025,1.04 ± 0.011
UniProt P31942 and related entries,1.01 ± 0.1,1.02 ± 0.078,1 ± 0.13,1.02 ± 0.11,0.984 ± 0.076,1.02 ± 0.1
CSRP1 (UniProt P21291),1 ± 0.03,0.992 ± 0.029,0.981 ± 0.013,1.04 ± 0.044,1.02 ± 0.038,1.03 ± 0.048
ECHS1 (UniProt P30084),0.9976 ± 0.0068,0.9885 ± 0.006,0.955 ± 0.029,0.994 ± 0.02,0.963 ± 0.017,0.961 ± 0.015
PRKAR2B (UniProt P31323),1 ± 0.043,0.97 ± 0.062,0.982 ± 0.037,0.989 ± 0.027,1.01 ± 0.058,1.01 ± 0.046
HSPA4 (UniProt P34932),0.977 ± 0.015,0.995 ± 0.023,0.9682 ± 0.0059,0.982 ± 0.0082,0.94 ± 0.026,0.949 ± 0.046
UniProt P27987 and related entries,0.997 ± 0.042,1.012 ± 0.006,1.01 ± 0.033,1 ± 0.024,0.988 ± 0.03,0.978 ± 0.022

# Copied from the list:
# NP40-soluble protein abundance (concentration: 2mM) with UniProt P27824 and related entries reads 0.991 ± 0.011
# NP40-soluble protein abundance (concentration: 8mM) with ITGA2 (UniProt P17301) reads 1.01 ± 0.025

# — the supplement of paper PMC6411743
